# Results published in the supplement of paper PMC12823440, “Inhibitors supercharge kinase turnover through native proteolytic circuits” (Nature, 2025).
# By UniProt entry, the sequences of proteins in these tests, tags left out. Where a name states a change or a piece, a line headed by the entry shows the natural chain unless it says otherwise.
# UniProt Q9Y616: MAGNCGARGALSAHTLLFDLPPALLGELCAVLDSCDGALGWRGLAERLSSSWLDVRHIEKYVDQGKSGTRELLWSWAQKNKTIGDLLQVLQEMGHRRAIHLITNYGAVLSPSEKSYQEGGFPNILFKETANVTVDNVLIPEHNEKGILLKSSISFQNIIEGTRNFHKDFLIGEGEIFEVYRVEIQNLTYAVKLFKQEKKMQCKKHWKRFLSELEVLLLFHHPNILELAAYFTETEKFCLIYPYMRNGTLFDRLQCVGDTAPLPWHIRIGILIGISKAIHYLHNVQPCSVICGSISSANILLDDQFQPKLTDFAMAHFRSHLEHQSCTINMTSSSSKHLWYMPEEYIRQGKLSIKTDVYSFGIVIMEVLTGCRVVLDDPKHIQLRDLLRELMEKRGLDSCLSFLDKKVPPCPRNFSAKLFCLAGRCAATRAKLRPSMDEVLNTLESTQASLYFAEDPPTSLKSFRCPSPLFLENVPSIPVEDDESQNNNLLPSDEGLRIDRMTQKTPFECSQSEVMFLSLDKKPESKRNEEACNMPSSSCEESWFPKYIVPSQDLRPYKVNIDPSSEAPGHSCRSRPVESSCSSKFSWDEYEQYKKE
# UniProt P23458: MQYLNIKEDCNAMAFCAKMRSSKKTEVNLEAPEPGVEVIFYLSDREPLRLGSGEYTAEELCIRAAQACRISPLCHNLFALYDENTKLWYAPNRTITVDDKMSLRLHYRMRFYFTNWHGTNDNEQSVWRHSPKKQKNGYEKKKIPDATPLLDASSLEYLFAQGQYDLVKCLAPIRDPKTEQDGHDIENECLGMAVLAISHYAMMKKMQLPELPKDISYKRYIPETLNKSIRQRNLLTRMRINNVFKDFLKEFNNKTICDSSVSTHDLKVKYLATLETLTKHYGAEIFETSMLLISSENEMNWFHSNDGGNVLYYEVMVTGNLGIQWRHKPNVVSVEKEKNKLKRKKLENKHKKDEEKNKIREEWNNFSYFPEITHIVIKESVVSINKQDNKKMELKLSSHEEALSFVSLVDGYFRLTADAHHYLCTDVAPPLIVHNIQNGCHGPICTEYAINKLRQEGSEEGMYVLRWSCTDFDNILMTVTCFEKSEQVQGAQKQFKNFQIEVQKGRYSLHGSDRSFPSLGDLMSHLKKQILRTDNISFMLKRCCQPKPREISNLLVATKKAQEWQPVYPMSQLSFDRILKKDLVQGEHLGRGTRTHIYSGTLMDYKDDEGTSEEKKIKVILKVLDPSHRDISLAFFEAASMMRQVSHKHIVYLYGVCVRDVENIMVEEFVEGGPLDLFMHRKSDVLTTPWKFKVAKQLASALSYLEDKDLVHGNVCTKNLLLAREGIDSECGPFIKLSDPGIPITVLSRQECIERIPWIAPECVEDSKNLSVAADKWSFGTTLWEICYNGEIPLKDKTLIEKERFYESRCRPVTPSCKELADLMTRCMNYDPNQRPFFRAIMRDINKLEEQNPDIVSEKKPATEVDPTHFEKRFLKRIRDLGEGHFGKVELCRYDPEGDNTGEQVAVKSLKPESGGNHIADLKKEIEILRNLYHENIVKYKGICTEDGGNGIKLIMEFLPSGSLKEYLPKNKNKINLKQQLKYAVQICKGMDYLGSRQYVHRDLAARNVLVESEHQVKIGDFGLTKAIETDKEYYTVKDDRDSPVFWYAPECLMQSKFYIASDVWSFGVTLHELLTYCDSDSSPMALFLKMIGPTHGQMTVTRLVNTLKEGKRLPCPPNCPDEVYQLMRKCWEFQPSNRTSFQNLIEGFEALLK
# UniProt P06239: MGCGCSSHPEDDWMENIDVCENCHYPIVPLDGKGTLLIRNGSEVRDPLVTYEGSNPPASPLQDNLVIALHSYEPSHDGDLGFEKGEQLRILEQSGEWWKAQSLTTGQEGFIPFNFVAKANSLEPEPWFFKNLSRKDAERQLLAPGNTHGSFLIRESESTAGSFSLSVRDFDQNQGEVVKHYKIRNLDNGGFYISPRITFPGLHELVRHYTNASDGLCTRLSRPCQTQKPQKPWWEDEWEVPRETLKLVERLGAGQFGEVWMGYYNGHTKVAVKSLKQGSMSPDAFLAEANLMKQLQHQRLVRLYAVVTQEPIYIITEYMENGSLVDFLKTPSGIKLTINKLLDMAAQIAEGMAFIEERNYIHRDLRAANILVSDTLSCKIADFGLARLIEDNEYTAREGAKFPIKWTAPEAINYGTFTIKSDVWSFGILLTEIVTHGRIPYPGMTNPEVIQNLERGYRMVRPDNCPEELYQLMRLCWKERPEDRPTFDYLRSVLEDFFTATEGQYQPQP
# UniProt P53667: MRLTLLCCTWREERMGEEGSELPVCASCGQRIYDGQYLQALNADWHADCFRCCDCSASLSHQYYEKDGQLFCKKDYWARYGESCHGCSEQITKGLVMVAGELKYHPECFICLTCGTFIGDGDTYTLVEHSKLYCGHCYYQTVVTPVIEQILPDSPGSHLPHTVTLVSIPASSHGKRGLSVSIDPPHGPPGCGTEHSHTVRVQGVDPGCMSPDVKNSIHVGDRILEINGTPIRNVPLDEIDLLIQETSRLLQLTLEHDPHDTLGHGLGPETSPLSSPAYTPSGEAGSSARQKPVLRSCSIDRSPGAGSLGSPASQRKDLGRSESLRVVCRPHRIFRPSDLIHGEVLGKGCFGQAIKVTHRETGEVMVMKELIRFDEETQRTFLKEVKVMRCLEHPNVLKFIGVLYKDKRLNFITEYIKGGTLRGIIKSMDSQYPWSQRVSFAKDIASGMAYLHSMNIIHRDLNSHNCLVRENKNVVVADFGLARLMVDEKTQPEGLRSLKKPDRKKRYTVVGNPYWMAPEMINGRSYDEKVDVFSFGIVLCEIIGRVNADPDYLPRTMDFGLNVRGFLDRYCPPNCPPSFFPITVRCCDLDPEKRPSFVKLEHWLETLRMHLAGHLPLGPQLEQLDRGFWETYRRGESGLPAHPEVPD
# UniProt P53671: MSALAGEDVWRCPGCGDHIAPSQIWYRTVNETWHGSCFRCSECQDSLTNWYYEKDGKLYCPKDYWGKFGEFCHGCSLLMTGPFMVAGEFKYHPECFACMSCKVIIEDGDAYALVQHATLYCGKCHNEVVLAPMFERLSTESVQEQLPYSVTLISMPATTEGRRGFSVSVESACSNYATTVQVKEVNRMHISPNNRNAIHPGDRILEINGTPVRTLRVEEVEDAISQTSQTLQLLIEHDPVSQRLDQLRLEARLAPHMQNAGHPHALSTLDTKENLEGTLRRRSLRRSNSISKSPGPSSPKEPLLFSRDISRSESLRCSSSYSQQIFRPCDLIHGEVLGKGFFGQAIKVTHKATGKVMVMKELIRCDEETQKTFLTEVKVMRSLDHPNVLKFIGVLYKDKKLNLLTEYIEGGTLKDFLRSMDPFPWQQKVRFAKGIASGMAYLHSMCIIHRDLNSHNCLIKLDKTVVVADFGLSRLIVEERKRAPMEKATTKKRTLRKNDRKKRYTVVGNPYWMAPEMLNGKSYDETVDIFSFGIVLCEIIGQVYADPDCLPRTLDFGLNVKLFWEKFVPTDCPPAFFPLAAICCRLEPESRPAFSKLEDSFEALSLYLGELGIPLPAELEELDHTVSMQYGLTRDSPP
# UniProt Q8IWU2: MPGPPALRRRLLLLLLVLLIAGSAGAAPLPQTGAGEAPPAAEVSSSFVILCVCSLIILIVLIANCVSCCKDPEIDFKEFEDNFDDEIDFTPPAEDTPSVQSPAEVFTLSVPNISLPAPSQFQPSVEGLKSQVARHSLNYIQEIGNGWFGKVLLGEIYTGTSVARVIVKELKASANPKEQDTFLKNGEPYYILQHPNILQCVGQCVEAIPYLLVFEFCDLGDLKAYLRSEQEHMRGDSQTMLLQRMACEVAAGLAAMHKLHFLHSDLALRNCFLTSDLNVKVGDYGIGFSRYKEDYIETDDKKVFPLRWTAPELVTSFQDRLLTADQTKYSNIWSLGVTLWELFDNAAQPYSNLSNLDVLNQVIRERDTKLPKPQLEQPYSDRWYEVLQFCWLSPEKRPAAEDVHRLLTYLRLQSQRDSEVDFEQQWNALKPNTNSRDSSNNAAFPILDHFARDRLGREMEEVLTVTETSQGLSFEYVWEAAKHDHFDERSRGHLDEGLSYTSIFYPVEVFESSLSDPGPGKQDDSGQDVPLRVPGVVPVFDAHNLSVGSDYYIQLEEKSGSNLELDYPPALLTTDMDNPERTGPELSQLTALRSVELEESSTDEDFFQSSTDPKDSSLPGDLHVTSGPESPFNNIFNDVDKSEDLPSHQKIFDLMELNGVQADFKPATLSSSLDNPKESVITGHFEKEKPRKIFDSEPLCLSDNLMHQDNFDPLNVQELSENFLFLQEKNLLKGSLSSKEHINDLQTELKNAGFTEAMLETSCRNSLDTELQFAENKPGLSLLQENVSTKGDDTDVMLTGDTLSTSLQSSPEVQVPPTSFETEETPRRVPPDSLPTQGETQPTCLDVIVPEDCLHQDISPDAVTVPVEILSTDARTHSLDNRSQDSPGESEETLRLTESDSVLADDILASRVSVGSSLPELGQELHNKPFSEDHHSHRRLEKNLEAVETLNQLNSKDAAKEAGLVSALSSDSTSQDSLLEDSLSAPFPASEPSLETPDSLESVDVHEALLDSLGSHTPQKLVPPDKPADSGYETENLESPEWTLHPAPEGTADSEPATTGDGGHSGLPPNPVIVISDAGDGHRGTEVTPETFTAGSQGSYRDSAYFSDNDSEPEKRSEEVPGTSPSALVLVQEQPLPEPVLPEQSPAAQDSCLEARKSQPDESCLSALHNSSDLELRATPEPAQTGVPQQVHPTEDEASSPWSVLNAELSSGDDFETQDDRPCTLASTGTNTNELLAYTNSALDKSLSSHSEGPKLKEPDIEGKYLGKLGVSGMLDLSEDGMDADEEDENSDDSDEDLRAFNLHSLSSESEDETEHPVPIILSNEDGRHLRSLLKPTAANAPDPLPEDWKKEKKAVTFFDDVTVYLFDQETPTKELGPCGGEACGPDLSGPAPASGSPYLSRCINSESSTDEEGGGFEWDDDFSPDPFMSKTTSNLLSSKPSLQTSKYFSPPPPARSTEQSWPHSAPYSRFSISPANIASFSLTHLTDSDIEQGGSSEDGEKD
# UniProt P07948: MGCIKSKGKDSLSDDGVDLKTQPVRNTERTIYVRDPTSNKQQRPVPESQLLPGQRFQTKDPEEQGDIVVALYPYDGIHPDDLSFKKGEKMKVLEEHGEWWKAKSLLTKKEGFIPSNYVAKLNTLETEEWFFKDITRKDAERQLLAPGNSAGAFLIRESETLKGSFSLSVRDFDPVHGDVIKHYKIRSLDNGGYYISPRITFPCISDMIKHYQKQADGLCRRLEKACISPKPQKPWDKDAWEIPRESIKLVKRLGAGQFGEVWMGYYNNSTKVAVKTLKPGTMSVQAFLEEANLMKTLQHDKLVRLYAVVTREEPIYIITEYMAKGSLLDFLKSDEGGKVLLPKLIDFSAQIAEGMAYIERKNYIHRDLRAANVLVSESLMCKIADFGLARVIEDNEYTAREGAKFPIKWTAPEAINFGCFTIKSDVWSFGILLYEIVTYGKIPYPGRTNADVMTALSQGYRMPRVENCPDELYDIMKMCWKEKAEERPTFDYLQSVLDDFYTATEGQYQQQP
# UniProt Q12851: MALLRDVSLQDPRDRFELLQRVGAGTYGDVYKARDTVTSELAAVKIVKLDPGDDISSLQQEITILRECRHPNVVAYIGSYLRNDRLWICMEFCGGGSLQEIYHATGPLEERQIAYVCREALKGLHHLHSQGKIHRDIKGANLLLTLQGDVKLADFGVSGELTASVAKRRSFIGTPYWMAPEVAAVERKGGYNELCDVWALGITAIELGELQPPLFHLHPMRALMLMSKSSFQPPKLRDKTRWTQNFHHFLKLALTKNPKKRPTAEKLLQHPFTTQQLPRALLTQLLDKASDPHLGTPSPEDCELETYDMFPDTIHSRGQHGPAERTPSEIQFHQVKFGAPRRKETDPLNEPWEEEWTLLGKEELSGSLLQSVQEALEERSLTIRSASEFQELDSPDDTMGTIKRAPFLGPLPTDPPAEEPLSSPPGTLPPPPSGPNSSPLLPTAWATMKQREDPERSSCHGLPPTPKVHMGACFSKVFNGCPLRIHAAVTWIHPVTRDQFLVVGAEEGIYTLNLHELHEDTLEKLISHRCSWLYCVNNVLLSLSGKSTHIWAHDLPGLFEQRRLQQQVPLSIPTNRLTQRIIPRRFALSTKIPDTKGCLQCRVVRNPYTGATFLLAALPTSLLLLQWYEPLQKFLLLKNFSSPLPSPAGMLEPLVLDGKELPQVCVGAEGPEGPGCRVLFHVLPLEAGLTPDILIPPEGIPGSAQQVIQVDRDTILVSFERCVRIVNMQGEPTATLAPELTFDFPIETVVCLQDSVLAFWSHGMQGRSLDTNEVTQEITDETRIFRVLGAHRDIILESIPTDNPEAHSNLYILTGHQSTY
# This is one part of the list. Hit calls seldom repeat between salt and free forms of one compound.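 Kinases, fused to nanoluciferase, were expressed in K562 cells; luminescence was measured every 4 h from 2 to 18 h as percent of control (DMSO = 100%, positive control = 0%). A time point is decreased if signal falls significantly (2 sigma). Hits were called by the authors by a rule that is not shown; the count of time points alone does not decide it.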
# Columns and labels:
# Experiment in all cases: kinase-Nluc reporter destabilization hit call (1 = scored as downregulated) (binary); higher = compound decreases kinase abundance
# Conditions in all cases: K562, 2-18 h
# IRAK3 = IRAK3 (UniProt Q9Y616)
# JAK1 = JAK1 (UniProt P23458)
# LCK = LCK (UniProt P06239)
# LIMK1 = LIMK1 (UniProt P53667)
# LIMK2 = LIMK2 (UniProt P53671)
# LMTK2 = LMTK2 (UniProt Q8IWU2)
# LYN = LYN (UniProt P07948)
# MAP2K1 = MAP2K1 (UniProt Q02750)
# MAP2K2 = MAP2K2 (UniProt P36507)
# MAP4K2 = MAP4K2 (UniProt Q12851)
smiles,measurement,setting,value
Cc1cc(C)n2c1C=C1C=CC(CCC(=O)NCCN3CCN(C/C=C/C(=O)N4CCCC(n5nc(-c6ccc(Oc7ccccc7)cc6)c6c(N)ncnc65)C4)CC3)=[N+]1[B-]2(F)F (stereo not drawn),kinase-Nluc reporter destabilization hit call,IRAK3; 2.5 µM,inactive: 0
same,kinase-Nluc reporter destabilization hit call,JAK1; 2.5 µM,inactive: 0
same,kinase-Nluc reporter destabilization hit call,LCK; 2.5 µM,inactive: 0
same,kinase-Nluc reporter destabilization hit call,LIMK1; 2.5 µM,inactive: 0
same,kinase-Nluc reporter destabilization hit call,LIMK2; 2.5 µM,inactive: 0
same,kinase-Nluc reporter destabilization hit call,LMTK2; 2.5 µM,inactive: 0
same,kinase-Nluc reporter destabilization hit call,LYN; 2.5 µM,inactive: 0
same,kinase-Nluc reporter destabilization hit call,MAP2K1; 2.5 µM,inactive: 0
same,kinase-Nluc reporter destabilization hit call,MAP2K2; 2.5 µM,inactive: 0
same,kinase-Nluc reporter destabilization hit call,MAP4K2; 2.5 µM,inactive: 0
Cc1ccc(O)cc1Nc1ccnc(Nc2cccc(C(N)=O)c2)n1 [Lck inhibitor 2],kinase-Nluc reporter destabilization hit call,IRAK3; 10 µM,inactive: 0
same,kinase-Nluc reporter destabilization hit call,JAK1; 10 µM,inactive: 0
same,kinase-Nluc reporter destabilization hit call,LCK; 10 µM,inactive: 0
same,kinase-Nluc reporter destabilization hit call,LIMK1; 10 µM,inactive: 0
same,kinase-Nluc reporter destabilization hit call,LIMK2; 10 µM,inactive: 0
same,kinase-Nluc reporter destabilization hit call,LMTK2; 10 µM,inactive: 0
same,kinase-Nluc reporter destabilization hit call,LYN; 10 µM,inactive: 0
same,kinase-Nluc reporter destabilization hit call,MAP2K1; 10 µM,inactive: 0
same,kinase-Nluc reporter destabilization hit call,MAP2K2; 10 µM,inactive: 0
same,kinase-Nluc reporter destabilization hit call,MAP4K2; 10 µM,inactive: 0
C[C@@H]1CN(C(=O)Nc2ccc(-c3nc(N4CCOCC4)c4cnn(CCCCCCC(=O)NO)c4n3)cc2)CCO1 [HDACs/mTOR Inhibitor 1],kinase-Nluc reporter destabilization hit call,IRAK3; 10 µM,inactive: 0
same,kinase-Nluc reporter destabilization hit call,JAK1; 10 µM,inactive: 0
same,kinase-Nluc reporter destabilization hit call,LCK; 10 µM,inactive: 0
same,kinase-Nluc reporter destabilization hit call,LIMK1; 10 µM,inactive: 0
same,kinase-Nluc reporter destabilization hit call,LIMK2; 10 µM,inactive: 0
same,kinase-Nluc reporter destabilization hit call,LMTK2; 10 µM,inactive: 0
same,kinase-Nluc reporter destabilization hit call,LYN; 10 µM,inactive: 0
same,kinase-Nluc reporter destabilization hit call,MAP2K1; 10 µM,inactive: 0
same,kinase-Nluc reporter destabilization hit call,MAP2K2; 10 µM,inactive: 0
same,kinase-Nluc reporter destabilization hit call,MAP4K2; 10 µM,inactive: 0
COc1cc(Nc2c(C#N)cnc3cc(OCCCN4CCN(C)CC4)c(OC)cc23)c(Cl)cc1Cl [Bosutinib],kinase-Nluc reporter destabilization hit call,IRAK3; 2.5 µM,inactive: 0
same,kinase-Nluc reporter destabilization hit call,JAK1; 2.5 µM,inactive: 0
same,kinase-Nluc reporter destabilization hit call,LCK; 2.5 µM,inactive: 0
same,kinase-Nluc reporter destabilization hit call,LIMK1; 2.5 µM,inactive: 0
same,kinase-Nluc reporter destabilization hit call,LIMK2; 2.5 µM,inactive: 0
same,kinase-Nluc reporter destabilization hit call,LMTK2; 2.5 µM,inactive: 0
same,kinase-Nluc reporter destabilization hit call,LYN; 2.5 µM,inactive: 0
same,kinase-Nluc reporter destabilization hit call,MAP2K1; 2.5 µM,inactive: 0
same,kinase-Nluc reporter destabilization hit call,MAP2K2; 2.5 µM,inactive: 0
same,kinase-Nluc reporter destabilization hit call,MAP4K2; 2.5 µM,inactive: 0
CCCOc1ccc(C=C2SC(=O)NC2=O)cc1,kinase-Nluc reporter destabilization hit call,IRAK3; 10 µM,inactive: 0
same,kinase-Nluc reporter destabilization hit call,JAK1; 10 µM,inactive: 0
same,kinase-Nluc reporter destabilization hit call,LCK; 10 µM,inactive: 0
same,kinase-Nluc reporter destabilization hit call,LIMK1; 10 µM,inactive: 0
same,kinase-Nluc reporter destabilization hit call,LIMK2; 10 µM,inactive: 0
same,kinase-Nluc reporter destabilization hit call,LMTK2; 10 µM,inactive: 0
same,kinase-Nluc reporter destabilization hit call,LYN; 10 µM,inactive: 0
same,kinase-Nluc reporter destabilization hit call,MAP2K1; 10 µM,inactive: 0
same,kinase-Nluc reporter destabilization hit call,MAP2K2; 10 µM,inactive: 0
same,kinase-Nluc reporter destabilization hit call,MAP4K2; 10 µM,inactive: 0
CCOc1nc(NC(=O)Cc2cc(OC)ccc2OC)cc(N)c1C#N [JNK Inhibitor VIII],kinase-Nluc reporter destabilization hit call,IRAK3; 10 µM,inactive: 0
same,kinase-Nluc reporter destabilization hit call,JAK1; 10 µM,inactive: 0
same,kinase-Nluc reporter destabilization hit call,LCK; 10 µM,inactive: 0
same,kinase-Nluc reporter destabilization hit call,LIMK1; 10 µM,inactive: 0
same,kinase-Nluc reporter destabilization hit call,LIMK2; 10 µM,inactive: 0
same,kinase-Nluc reporter destabilization hit call,LMTK2; 10 µM,inactive: 0
same,kinase-Nluc reporter destabilization hit call,LYN; 10 µM,inactive: 0
same,kinase-Nluc reporter destabilization hit call,MAP2K1; 10 µM,inactive: 0
same,kinase-Nluc reporter destabilization hit call,MAP2K2; 10 µM,inactive: 0
same,kinase-Nluc reporter destabilization hit call,MAP4K2; 10 µM,inactive: 0
COc1ccc(CNC(=O)Nc2ncc([N+](=O)[O-])s2)cc1,kinase-Nluc reporter destabilization hit call,IRAK3; 2.5 µM,inactive: 0
same,kinase-Nluc reporter destabilization hit call,JAK1; 2.5 µM,inactive: 0
same,kinase-Nluc reporter destabilization hit call,LCK; 2.5 µM,inactive: 0
same,kinase-Nluc reporter destabilization hit call,LIMK1; 2.5 µM,inactive: 0
same,kinase-Nluc reporter destabilization hit call,LIMK2; 2.5 µM,inactive: 0
same,kinase-Nluc reporter destabilization hit call,LMTK2; 2.5 µM,inactive: 0
same,kinase-Nluc reporter destabilization hit call,LYN; 2.5 µM,inactive: 0
same,kinase-Nluc reporter destabilization hit call,MAP2K1; 2.5 µM,inactive: 0
same,kinase-Nluc reporter destabilization hit call,MAP2K2; 2.5 µM,inactive: 0
same,kinase-Nluc reporter destabilization hit call,MAP4K2; 2.5 µM,inactive: 0
Fc1ccc(-c2nc(-c3ccc4ccccc4c3F)[nH]c2-c2ccncc2)cc1,kinase-Nluc reporter destabilization hit call,IRAK3; 10 µM,inactive: 0
same,kinase-Nluc reporter destabilization hit call,JAK1; 10 µM,inactive: 0
same,kinase-Nluc reporter destabilization hit call,LCK; 10 µM,inactive: 0
same,kinase-Nluc reporter destabilization hit call,LIMK1; 10 µM,inactive: 0
same,kinase-Nluc reporter destabilization hit call,LIMK2; 10 µM,inactive: 0
same,kinase-Nluc reporter destabilization hit call,LMTK2; 10 µM,inactive: 0
same,kinase-Nluc reporter destabilization hit call,LYN; 10 µM,inactive: 0
same,kinase-Nluc reporter destabilization hit call,MAP2K1; 10 µM,inactive: 0
same,kinase-Nluc reporter destabilization hit call,MAP2K2; 10 µM,inactive: 0
same,kinase-Nluc reporter destabilization hit call,MAP4K2; 10 µM,inactive: 0
C=CC(=O)N1CCC([C@@H]2CCNc3c(C(N)=O)c(-c4ccc(Oc5ccccc5)cc4)nn32)CC1 [Zanubrutinib],kinase-Nluc reporter destabilization hit call,IRAK3; 10 µM,inactive: 0
same,kinase-Nluc reporter destabilization hit call,JAK1; 10 µM,inactive: 0
same,kinase-Nluc reporter destabilization hit call,LCK; 10 µM,inactive: 0
same,kinase-Nluc reporter destabilization hit call,LIMK1; 10 µM,inactive: 0
same,kinase-Nluc reporter destabilization hit call,LIMK2; 10 µM,inactive: 0
same,kinase-Nluc reporter destabilization hit call,LMTK2; 10 µM,inactive: 0
same,kinase-Nluc reporter destabilization hit call,LYN; 10 µM,inactive: 0
same,kinase-Nluc reporter destabilization hit call,MAP2K1; 10 µM,inactive: 0
same,kinase-Nluc reporter destabilization hit call,MAP2K2; 10 µM,inactive: 0
same,kinase-Nluc reporter destabilization hit call,MAP4K2; 10 µM,inactive: 0
O=C(c1ccc(/C=C/c2n[nH]c3ccccc23)cc1)N1CCNCC1,kinase-Nluc reporter destabilization hit call,IRAK3; 2.5 µM,inactive: 0
same,kinase-Nluc reporter destabilization hit call,JAK1; 2.5 µM,inactive: 0
same,kinase-Nluc reporter destabilization hit call,LCK; 2.5 µM,inactive: 0
same,kinase-Nluc reporter destabilization hit call,LIMK1; 2.5 µM,inactive: 0
same,kinase-Nluc reporter destabilization hit call,LIMK2; 2.5 µM,inactive: 0
same,kinase-Nluc reporter destabilization hit call,LMTK2; 2.5 µM,inactive: 0
same,kinase-Nluc reporter destabilization hit call,LYN; 2.5 µM,inactive: 0
same,kinase-Nluc reporter destabilization hit call,MAP2K1; 2.5 µM,inactive: 0
same,kinase-Nluc reporter destabilization hit call,MAP2K2; 2.5 µM,inactive: 0
same,kinase-Nluc reporter destabilization hit call,MAP4K2; 2.5 µM,inactive: 0
Cc1ccc(Nc2nccc(N(C)c3ccc4c(C)n(C)nc4c3)n2)cc1S(N)(=O)=O [Pazopanib],kinase-Nluc reporter destabilization hit call,IRAK3; 10 µM,inactive: 0
same,kinase-Nluc reporter destabilization hit call,JAK1; 10 µM,inactive: 0
same,kinase-Nluc reporter destabilization hit call,LCK; 10 µM,inactive: 0
same,kinase-Nluc reporter destabilization hit call,LIMK2; 10 µM,inactive: 0
same,kinase-Nluc reporter destabilization hit call,LMTK2; 10 µM,inactive: 0
same,kinase-Nluc reporter destabilization hit call,LYN; 10 µM,inactive: 0
same,kinase-Nluc reporter destabilization hit call,MAP2K1; 10 µM,inactive: 0
same,kinase-Nluc reporter destabilization hit call,MAP2K2; 10 µM,inactive: 0
same,kinase-Nluc reporter destabilization hit call,MAP4K2; 10 µM,inactive: 0
CC1(C)CNc2cc(NC(=O)c3cccnc3NCc3ccncc3)ccc21 [Motesanib],kinase-Nluc reporter destabilization hit call,IRAK3; 2.5 µM,inactive: 0
same,kinase-Nluc reporter destabilization hit call,JAK1; 2.5 µM,inactive: 0
same,kinase-Nluc reporter destabilization hit call,LIMK1; 2.5 µM,inactive: 0
same,kinase-Nluc reporter destabilization hit call,LIMK2; 2.5 µM,inactive: 0
same,kinase-Nluc reporter destabilization hit call,LMTK2; 2.5 µM,inactive: 0
same,kinase-Nluc reporter destabilization hit call,MAP2K1; 2.5 µM,inactive: 0
same,kinase-Nluc reporter destabilization hit call,MAP2K2; 2.5 µM,inactive: 0
same,kinase-Nluc reporter destabilization hit call,MAP4K2; 2.5 µM,inactive: 0
COc1ccc(-c2c[nH]c3nccc(-c4ccsc4)c23)c(OC)c1,kinase-Nluc reporter destabilization hit call,IRAK3; 10 µM,inactive: 0
same,kinase-Nluc reporter destabilization hit call,JAK1; 10 µM,inactive: 0
same,kinase-Nluc reporter destabilization hit call,LCK; 10 µM,inactive: 0
same,kinase-Nluc reporter destabilization hit call,LIMK1; 10 µM,inactive: 0
same,kinase-Nluc reporter destabilization hit call,LIMK2; 10 µM,inactive: 0
same,kinase-Nluc reporter destabilization hit call,LMTK2; 10 µM,inactive: 0
same,kinase-Nluc reporter destabilization hit call,MAP2K1; 10 µM,inactive: 0
same,kinase-Nluc reporter destabilization hit call,MAP2K2; 10 µM,inactive: 0
same,kinase-Nluc reporter destabilization hit call,MAP4K2; 10 µM,inactive: 0
CCn1c(=O)c(-c2cc(NC(=O)Nc3ccccc3)c(F)cc2Br)cc2cnc(NC)cc21 [Ripretinib],kinase-Nluc reporter destabilization hit call,IRAK3; 10 µM,active: 1
same,kinase-Nluc reporter destabilization hit call,JAK1; 10 µM,inactive: 0
same,kinase-Nluc reporter destabilization hit call,LCK; 10 µM,inactive: 0
same,kinase-Nluc reporter destabilization hit call,LIMK1; 10 µM,inactive: 0
same,kinase-Nluc reporter destabilization hit call,LIMK2; 10 µM,inactive: 0
same,kinase-Nluc reporter destabilization hit call,LMTK2; 10 µM,inactive: 0
same,kinase-Nluc reporter destabilization hit call,LYN; 10 µM,inactive: 0
same,kinase-Nluc reporter destabilization hit call,MAP2K1; 10 µM,inactive: 0
same,kinase-Nluc reporter destabilization hit call,MAP2K2; 10 µM,inactive: 0
same,kinase-Nluc reporter destabilization hit call,MAP4K2; 10 µM,inactive: 0
COc1cc2/c(=N/c3ccc(Br)cc3F)nc[nH]c2cc1OCC1CCN(C)CC1 [Vandetanib],kinase-Nluc reporter destabilization hit call,IRAK3; 2.5 µM,inactive: 0
same,kinase-Nluc reporter destabilization hit call,JAK1; 2.5 µM,inactive: 0
same,kinase-Nluc reporter destabilization hit call,LIMK1; 2.5 µM,inactive: 0
same,kinase-Nluc reporter destabilization hit call,LIMK2; 2.5 µM,inactive: 0
same,kinase-Nluc reporter destabilization hit call,LMTK2; 2.5 µM,inactive: 0
same,kinase-Nluc reporter destabilization hit call,LYN; 2.5 µM,inactive: 0
same,kinase-Nluc reporter destabilization hit call,MAP2K1; 2.5 µM,inactive: 0

# An excerpt of these results, as tab-separated lines.
smiles	measurement	setting	value
COc1cc(Nc2c(C#N)cnc3cc(OCCCN4CCN(C)CC4)c(OC)cc23)c(Cl)cc1Cl [Bosutinib]	kinase-Nluc reporter destabilization hit call	JAK1; 2.5 µM	inactive: 0
CCOc1nc(NC(=O)Cc2cc(OC)ccc2OC)cc(N)c1C#N [JNK Inhibitor VIII]	kinase-Nluc reporter destabilization hit call	LIMK1; 10 µM	inactive: 0
O=C(c1ccc(/C=C/c2n[nH]c3ccccc23)cc1)N1CCNCC1	kinase-Nluc reporter destabilization hit call	LMTK2; 2.5 µM	inactive: 0
COc1ccc(-c2c[nH]c3nccc(-c4ccsc4)c23)c(OC)c1	kinase-Nluc reporter destabilization hit call	LIMK1; 10 µM	inactive: 0
